No constants are given. Whether binding was seen depends on the method and setting. Some binding calls cover weakened binding; strength is not graded here.
biological target: Trigger Factor (tig-TEV-Avi) (E. coli) (UniProt P0A850); assay: selective ribosome profiling (SeRP); affinity purification of TF-TEV-Avi with ribosome-nascent chain complexes from E. coli lysate, no chemical cross-linking; ribosome footprints sequenced, enrichment over the total translatome

Amino acid sequences for entries named in this document (tags omitted).
UniProt P0A850: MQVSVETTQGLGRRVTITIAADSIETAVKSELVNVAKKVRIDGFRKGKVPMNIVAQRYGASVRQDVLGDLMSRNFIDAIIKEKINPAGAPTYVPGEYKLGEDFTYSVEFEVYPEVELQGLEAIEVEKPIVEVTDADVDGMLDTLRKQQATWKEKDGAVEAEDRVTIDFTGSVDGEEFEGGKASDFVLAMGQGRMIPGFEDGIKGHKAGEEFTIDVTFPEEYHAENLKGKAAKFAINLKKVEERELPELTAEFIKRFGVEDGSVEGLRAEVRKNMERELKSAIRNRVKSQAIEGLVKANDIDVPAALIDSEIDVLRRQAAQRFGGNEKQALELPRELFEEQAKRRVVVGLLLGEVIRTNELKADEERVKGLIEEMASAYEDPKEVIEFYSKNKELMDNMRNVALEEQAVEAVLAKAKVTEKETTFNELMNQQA
UniProt P0A6Y8: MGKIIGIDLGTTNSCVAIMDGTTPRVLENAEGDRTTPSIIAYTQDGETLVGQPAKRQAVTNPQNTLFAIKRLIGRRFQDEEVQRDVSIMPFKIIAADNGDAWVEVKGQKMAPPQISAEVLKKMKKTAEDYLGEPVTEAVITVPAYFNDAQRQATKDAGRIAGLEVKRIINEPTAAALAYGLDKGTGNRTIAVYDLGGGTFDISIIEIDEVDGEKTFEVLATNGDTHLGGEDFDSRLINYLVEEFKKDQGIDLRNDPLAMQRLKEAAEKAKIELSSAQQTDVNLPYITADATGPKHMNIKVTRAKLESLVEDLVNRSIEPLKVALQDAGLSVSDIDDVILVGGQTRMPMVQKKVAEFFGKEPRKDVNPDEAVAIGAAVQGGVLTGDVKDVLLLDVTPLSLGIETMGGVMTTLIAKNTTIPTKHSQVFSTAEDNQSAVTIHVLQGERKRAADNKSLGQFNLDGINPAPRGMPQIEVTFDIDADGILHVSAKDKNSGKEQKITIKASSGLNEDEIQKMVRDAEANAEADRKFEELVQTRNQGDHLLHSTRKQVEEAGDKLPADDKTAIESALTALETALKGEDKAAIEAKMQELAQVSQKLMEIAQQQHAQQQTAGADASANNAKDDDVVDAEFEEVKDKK

Row | Binder | binding
1 | nascent RibD (protein, UniProt P25539 1-367) MQDEYYMARALKLAQRGRFTTHPNPNVGCVIVKDGEIVGEGYHQRAGEPHAEVHALRMAGEKAKGATAYVTLEPCSHHGRTPPCCDALIAAGVARVVASMQDPNPQVAGRGLYRLQQAGIDVSHGLMMSEAEQLNKGFLKRMRTGFPYIQLKLGASLDGRTAMASGESQWITSPQARRDVQLLRAQSHAILTSSATVLADDPALTVRWSELDEQTQALYPQQNLRQPIRIVIDSQNRVTPVHRIVQQPGETWFARTQEDSREWPETVRTLLIPEHKGHLDLVVLMMQLGKQQINSIWVEAGPTLAGALLQAGLVDELIVYIAPKLLGSDARGLCTLPGLEKLADAPQFKFKEIRHVGPDVCLHLVGA | binds
2 | nascent PurF (protein, UniProt P0AG16 1-505) MCGIVGIAGVMPVNQSIYDALTVLQHRGQDAAGIITIDANNCFRLRKANGLVSDVFEARHMQRLQGNMGIGHVRYPTAGSSSASEAQPFYVNSPYGITLAHNGNLTNAHELRKKLFEEKRRHINTTSDSEILLNIFASELDNFRHYPLEADNIFAAIAATNRLIRGAYACVAMIIGHGMVAFRDPNGIRPLVLGKRDIDENRTEYMVASESVALDTLGFDFLRDVAPGEAIYITEEGQLFTRQCADNPVSNPCLFEYVYFARPDSFIDKISVYSARVNMGTKLGEKIAREWEDLDIDVVIPIPETSCDIALEIARILGKPYRQGFVKNRYVGRTFIMPGQQLRRKSVRRKLNANRAEFRDKNVLLVDDSIVRGTTSEQIIEMAREAGAKKVYLASAAPEIRFPNVYGIDMPSATELIAHGREVDEIRQIIGADGLIFQDLNDLIDAVRAENPDIQQFECSVFNGVYVTKDVDQGYLDFLDTLRNDDAKAVQRQNEVENLEMHNEG | binds
3 | nascent PheT (protein, UniProt P07395 1-795) MKFSELWLREWVNPAIDSDALANQITMAGLEVDGVEPVAGSFHGVVVGEVVECAQHPNADKLRVTKVNVGGDRLLDIVCGAPNCRQGLRVAVATIGAVLPGDFKIKAAKLRGEPSEGMLCSFSELGISDDHSGIIELPADAPIGTDIREYLKLDDNTIEISVTPNRADCLGIIGVARDVAVLNQLPLVQPEIVPVGATIDDTLPITVEAPEACPRYLGRVVKGINVKAPTPLWMKEKLRRCGIRSIDAVVDVTNYVLLELGQPMHAFDKDRIEGGIVVRMAKEGETLVLLDGTEAKLNADTLVIADHNKALAMGGIFGGEHSGVNDETQNVLLECAFFSPLSITGRARRHGLHTDASHRYERGVDPALQHKAMERATRLLIDICGGEAGPVIDITNEATLPKRATITLRRSKLDRLIGHHIADEQVTDILRRLGCEVTEGKDEWQAVAPSWRFDMEIEEDLVEEVARVYGYNNIPDEPVQASLIMGTHREADLSLKRVKTLLNDKGYQEVITYSFVDPKVQQMIHPGVEALLLPSPISVEMSAMRLSLWTGLLATVVYNQNRQQNRVRIFESGLRFVPDTQAPLGIRQDLMLAGVICGNRYEEHWNLAKETVDFYDLKGDLESVLDLTGKLNEVEFRAEANPALHPGQSAAIYLKGERIGFVGVVHPELERKLDLNGRTLVFELEWNKLADRVVPQAREISRFPANRRDIAVVVAENVPAADILSECKKVGVNQVVGVNLFDVYRGKGVAEGYKSLAISLILQDTSRTLEEEEIAATVAKCVEALKERFQASLRD | binds
4 | nascent TldD (protein, UniProt P0AGG8 1-481) MSLNLVSEQLLAANGLKHQDLFAILGQLAERRLDYGDLYFQSSYHESWVLEDRIIKDGSYNIDQGVGVRAISGEKTGFAYADQISLLALEQSAQAARTIVRDSGDGKVQTLGAVEHSPLYTSVDPLQSMSREEKLDILRRVDKVAREADKRVQEVTASLSGVYELILVAATDGTLAADVRPLVRLSVSVLVEEDGKRERGASGGGGRFGYEFFLADLDGEVRADAWAKEAVRMALVNLSAVAAPAGTMPVVLGAGWPGVLLHEAVGHGLEGDFNRRGTSVFSGQVGELVASELCTVVDDGTMVDRRGSVAIDDEGTPGQYNVLIENGILKGYMQDKLNARLMGMTPTGNGRRESYAHLPMPRMTNTYMLPGKSTPQEIIESVEYGIYAPNFGGGQVDITSGKFVFSTSEAYLIENGKVTKPVKGATLIGSGIETMQQISMVGNDLKLDNGVGVCGKEGQSLPVGVGQPTLKVDNLTVGGTA | binds
5 | nascent AmiA (protein, UniProt P36548 35-289) KDELLKTSNGHSKPKAKKSGGKRVVVLDPGHGGIDTGAIGRNGSKEKHVVLAIAKNVRSILRNHGIDARLTRSGDTFIPLYDRVEIAHKHGADLFMSIHADGFTNPKAAGASVFALSNRGASSAMAKYLSERENRADEVAGKKATDKDHLLQQVLFDLVQTDTIKNSLTLGSHILKKIKPVHKLHSRNTEQAAFVVLKSPSVPSVLVETSFITNPEEERLLGTAAFRQKIATAIAEGVISYFHWFDNQKAHSKKR | binds
6 | nascent TrpD (protein, UniProt P00904 1-531) MADILLLDNIDSFTYNLADQLRSNGHNVVIYRNHIPAQTLIERLATMSNPVLMLSPGPGVPSEAGCMPELLTRLRGKLPIIGICLGHQAIVEAYGGYVGQAGEILHGKASSIEHDGQAMFAGLTNPLPVARYHSLVGSNIPAGLTINAHFNGMVMAVRHDADRVCGFQFHPESILTTQGARLLEQTLAWAQQKLEPANTLQPILEKLYQAQTLSQQESHQLFSAVVRGELKPEQLAAALVSMKIRGEHPNEIAGAATALLENAAPFPRPDYLFADIVGTGGDGSNSINISTASAFVAAACGLKVAKHGNRSVSSKSGSSDLLAAFGINLDMNADKSRQALDELGVCFLFAPKYHTGFRHAMPVRQQLKTRTLFNVLGPLINPAHPPLALIGVYSPELVLPIAETLRVLGYQRAAVVHSGGMDEVSLHAPTIVAELHDGEIKSYQLTAEDFGLTPYHQEQLAGGTPEENRDILTRLLQGKGDAAHEAAVAANVAMLMRLHGHEDLQANAQTVLEVLRSGSAYDRVTALAARG | binds

biological target: DnaK (E. coli (endogenous in MC4100)) (UniProt P0A6Y8); assay: selective ribosome profiling (immunoprecipitation of chaperone-bound ribosome-nascent chain complexes, sequencing of the mRNA footprints); DnaK immunoprecipitated with anti-DnaK antibody on Dynabeads from ATP-depleted (hexokinase) lysate after MNase digest and sucrose cushion; selected translatome normalised by the total translatome

Row | Binder | binding
7 | nascent RpoH (protein, UniProt P0AGB3 1-284) MTDKMQSLALAPVGNLDSYIRAANAWPMLSADEERALAEKLHYHGDLEAAKTLILSHLRFVVHIARNYAGYGLPQADLIQEGNIGLMKAVRRFNPEVGVRLVSFAVHWIKAEIHEYVLRNWRIVKVATTKAQRKLFFNLRKTKQRLGWFNQDEVEMVARELGVTSKDVREMESRMAAQDMTFDLSSDDDSDSQPMAPVLYLQDKSSNFADGIEDDNWEEQAANRLTDAMQGLDERSQDIIRARWLDEDNKSTLQELADRYGVSAERVRQLEKNAMKKLRAAIEA | binds
8 | nascent UvrB (protein, UniProt P0A8F8 1-673) MSKPFKLNSAFKPSGDQPEAIRRLEEGLEDGLAHQTLLGVTGSGKTFTIANVIADLQRPTMVLAPNKTLAAQLYGEMKEFFPENAVEYFVSYYDYYQPEAYVPSSDTFIEKDASVNEHIEQMRLSATKAMLERRDVVVVASVSAIYGLGDPDLYLKMMLHLTVGMIIDQRAILRRLAELQYARNDQAFQRGTFRVRGEVIDIFPAESDDIALRVELFDEEVERLSLFDPLTGQIVSTIPRFTIYPKTHYVTPRERIVQAMEEIKEELAARRKVLLENNKLLEEQRLTQRTQFDLEMMNELGYCSGIENYSRFLSGRGPGEPPPTLFDYLPADGLLVVDESHVTIPQIGGMYRGDRARKETLVEYGFRLPSALDNRPLKFEEFEALAPQTIYVSATPGNYELEKSGGDVVDQVVRPTGLLDPIIEVRPVATQVDDLLSEIRQRAAINERVLVTTLTKRMAEDLTEYLEEHGERVRYLHSDIDTVERMEIIRDLRLGEFDVLVGINLLREGLDMPEVSLVAILDADKEGFLRSERSLIQTIGRAARNVNGKAILYGDKITPSMAKAIGETERRREKQQKYNEEHGITPQGLNKKVVDILALGQNIAKTKAKGRGKSRPIVEPDNVPMDMSPKALQQKIHELEGLMMQHAQNLEFEEAAQIRDQLHQLRELFIAAS | binds
9 | nascent YhjK (protein, UniProt P37649 1-662) MRVSRSLTIKQMAMVAAVVLVFVFIFCTVLLFHLVQQNRYNTATQLESIARSVREPLSSAILKGDIPEAEAILASIKPAGVVSRADVVLPNQFQALRKSFIPERPVPVMVTRLFELPVQISLGVYSLERPANPQPIAYLVLQADSFRMYKFVMSTLSTLVTIYLLLSLILTVAISWCINRLILHPLRNIARELNAIPAKELVGHQLALPRLHQDDEIGMLVRSYNLNQQLLQRHYEEQNENAMRFPVSDLPNKALLMEMLEQVVARKQTTALMIITCETLRDTAGVLKEAQREILLLTLVEKLKSVLSPRMILAQISGYDFAVIANGVQEPWHAITLGQQVLTIMSERLPIERIQLRPHCSIGVAMFYGDLTAEQLYSRAISAAFTARHKGKNQIQFFDPQQMEAAQKRLTEESDILNALENHQFAIWLQPQVEMTSGKLVSAEVLLRIQQPDGSWDLPDGLIDRIECCGLMVTVGHWVLEESCRLLAAWQERGIMLPLSVNLSALQLMHPNMVADMLELLTRYRIQPGTLILEVTESRRIDDPHAAVAILRPLRNAGVRVALDDFGMGYAGLRQLQHMKSLPIDVLKIDKMFVEGLPGDSSMIAAIIMLAQSLNLQMIAEGVETEAQRDWLAKAGVGIAQGFLFARPLPIEIFEESYLEEK | binds
10 | nascent UvrA (protein, UniProt P0A698 1-940) MDKIEVRGARTHNLKNINLVIPRDKLIVVTGLSGSGKSSLAFDTLYAEGQRRYVESLSAYARQFLSLMEKPDVDHIEGLSPAISIEQKSTSHNPRSTVGTITEIHDYLRLLFARVGEPRCPDHDVPLAAQTVSQMVDNVLSQPEGKRLMLLAPIIKERKGEHTKTLENLASQGYIRARIDGEVCDLSDPPKLELQKKHTIEVVVDRFKVRDDLTQRLAESFETALELSGGTAVVADMDDPKAEELLFSANFACPICGYSMRELEPRLFSFNNPAGACPTCDGLGVQQYFDPDRVIQNPELSLAGGAIRGWDRRNFYYFQMLKSLADHYKFDVEAPWGSLSANVHKVVLYGSGKENIEFKYMNDRGDTSIRRHPFEGVLHNMERRYKETESSAVREELAKFISNRPCASCEGTRLRREARHVYVENTPLPAISDMSIGHAMEFFNNLKLAGQRAKIAEKILKEIGDRLKFLVNVGLNYLTLSRSAETLSGGEAQRIRLASQIGAGLVGVMYVLDEPSIGLHQRDNERLLGTLIHLRDLGNTVIVVEHDEDAIRAADHVIDIGPGAGVHGGEVVAEGPLEAIMAVPESLTGQYMSGKRKIEVPKKRVPANPEKVLKLTGARGNNLKDVTLTLPVGLFTCITGVSGSGKSTLINDTLFPIAQRQLNGATIAEPAPYRDIQGLEHFDKVIDIDQSPIGRTPRSNPATYTGVFTPVRELFAGVPESRARGYTPGRFSFNVRGGRCEACQGDGVIKVEMHFLPDIYVPCDQCKGKRYNRETLEIKYKGKTIHEVLDMTIEEAREFFDAVPALARKLQTLMDVGLTYIRLGQSATTLSGGEAQRVKLARELSKRGTGQTLYILDEPTTGLHFADIQQLLDVLHKLRDQGNTIVVIEHNLDVIKTADWIVDLGPEGGSGGGEILVSGTPETVAECEASHTARFLKPML | binds

From PMC12065913
